{"source": "patent US8685726B2", "about": "“Small molecules supporting pluripotent cell growth and methods thereof” (Viacyte, Inc., priority 2009, dated 2014)", "type_in_all_cases": "cell-based, human", "key": {"hES cells": {"test_system": "hES cells", "test": "Low-density real-time cell index monitoring (RT-CES impedance reader)", "details": "1000 cells/well", "description": "FIG. 4. Titration of NE and ACh using the RT-CES impedance reader. 1000 hES cells/well were plated in StemPro® hESC SFM containing the indicated concentrations of small molecules (in μM). In such an assay, the timing of when the cell index rises is associated with the proportion of cells that survive and expand at low density.\nFIG. 5. Combined effects of small molecules compound combinations in low cell density assays. (A) 1000 hES cells/well were plated in StemPro® hESC SFM containing small molecules at 50 μM (NE, ACh, Adenosine, GABA) or 10 μM (Y27632). The assay was carried out over 5 days using the RT-CES system.\nFIG. 6. […]\nFurthermore, pluripotent cells can also be grown in 96-well culture devices that provide real-time measurements of impedance, which can be used to measure cell proliferation and viability using the RT-CES™ methods from ACEA Biosciences, Inc. (www (dot) aceabio (dot) com). Such an approach would enable a label-free identification and quantification of subtle or immediate effects on differentiable cells, as well as measurements of proliferation, apoptosis and changes to morphology, in real time.\nTo examine more closely the potency of individual neurotransmitters and determine if synergies exist between different factors, low-density assays were performed in real time using an impedance reader. […]"}, "CyT49 cells": {"test_system": "CyT49 cells", "test": "Suspension aggregate culture, cell counts and aggregate diameters", "details": "for cells generated at passage 1: cultured for 6 days", "description": "FIG. 10. Effects of NE and ACh in suspension culture of hES cell. (A) 5×10^6 CyT49 cells were seeded in 5 ml StemPro® hESC SFM containing heregulin, LR3-IGF1, Activin and the indicated neurotransmitters at 50 μM in low-attachment 6-well trays and placed at 100 rpm. Undifferentiated suspension aggregates were imaged on day 4. (B) 24 hours after seeding, two wells from each condition were harvested and counted to determine the number of viable cells. (C) Cell counts of each condition when the cultures were split on day 4. (D) The images in (A) were used to determine aggregate diameters using the ImagePro software measurement tool. Average diameters and standard deviations from 50-100 aggregates from each condition are shown. (E) Passage 1 cell counting data. 5×10^6 CyT49 hES cells from p0 cells in (A) were seeded into the same conditions. The aggregates in the condition containing Y27632 were larger and had to be passaged 3 days after seeding, before the centers of the largest aggregates became necrotic. Conversely, the other conditions could be cultured for 6 days before passaging, resulting in higher cell counts.\nFIG. 11. Suspension hES cell cultured with NE, […] remain undifferentiated. CyT49 cells were grown as suspension aggregates in the presence of NE, […] for 16 passages without differentiating morphologically. After p10, some cells were re-plated to adherent culture and examined by karyotyping and immunofluorescent staining for OCT4 and Tra-1-61. All cultures remained undifferentiated and expressed these pluripotency markers uniformly. (SP) StemPro® SFM HIA, NE (+NE at 50 μM), ACh (+ACh at 50 μM), NE/ACh (+NE/ACh at 50 μM). Karyotype data is shown to the right. […] Cultures containing ACh were aneuploid.\nSmall molecule ligands that support survival or self-renewal at low cell densities could also be expected to have beneficial effects in other culture formats. Applicants have previously developed a suspension culture system for hES cells that enables serial propagation of cells and effective expansion of cultures. […]"}, "[1]": {"test_system": "hES cells (e.g., BGO2 cells)", "test": "Low-density colony forming / colony counting assay (AP+ colonies)", "details": "for frequency of colony formation: 50 μM NE or ACh, different starting densities", "description": "FIG. 2. Low density plating assay of hES cells (e.g., BGO2 cells). 10000 cells/well were plated in 6-well trays in StemPro® hESC SFM (Life Technologies) medium and stained with alkaline phosphatase (AP+) after 7 days. Y (Y27632), ACh (acetylcholine), NMDA (N-methyl-D-aspartic acid), NE ((−)-Norepinephrine), NE.Bit ((±)-Norepinephrine (+)-bitartrate). Compounds were added at 10 or 50 μM as indicated.\nFIG. 3. Low density plating assay of hES cells. (A) 200-10000 cells/well were plated in […] trays in StemPro® hESC SFM medium, or StemPro® hESC SFM +50 μM NE, or +50 μM ACh, and stained with alkaline phosphatase (AP+) after 8 days. […] ACh (acetylcholine), NE ((±)-Norepinephrine (+)-bitartrate). […]\nAbout 10^4 hES cells/well were plated in 6-well trays in StemPro® hESC SFM, in the presence of different compounds and cultured for about 7 days. The cultures were then fixed, stained for alkaline phosphatase activity and colonies were counted (FIG. 2). […] The (±)-Norepinephrine (+)-bitartrate salt was used for all subsequent experiments involving norepinephrine (NE) unless specifically described otherwise.\nA similar colony counting experiment was performed using a range of cell densities (FIG. 3). […] See Robins and Schulz 2009, supra. […]"}}, "note": "At least one structure is not confirmed: it was looked up by name or label, or the drawing left a doubt. Some entries share one result that the patent states for a list of compounds."}
{"smiles": "CC(=O)OCC[N+](C)(C)C", "note": "[ACh, acetylcholine]", "values": [{"measurement": "survival and expansion at low density, single factors and two-factor combinations", "setting": "hES cells; 50 μM (NE, ACh, Adenosine, GABA) or 10 μM (Y27632), 5 days", "result": "effective survival and expansion"}, {"measurement": "survival/expansion on addition of neurotransmitter", "setting": "hES cells; HAI or HI background", "result": "substantially improved survival/expansion"}, {"measurement": "cells generated at passage 1", "setting": "CyT49 cells", "result": "greater than 2×10^7 cells per well"}, {"measurement": "aggregate size on day 4", "setting": "CyT49 cells; suspension, StemPro hESC SFM HIA, neurotransmitters 50 μM", "result": "smaller aggregates"}, {"measurement": "frequency of colony formation", "setting": "[1]", "result": "2.5-3.5 % of the plated cells"}, {"measurement": "colonies detected compared to StemPro hESC SFM medium alone", "setting": "[1]; 50 μM, 200-10000 cells/well, 8 days", "result": "More than four times as many colonies"}, {"measurement": "support of colony formation at low density", "setting": "[1]; 10^4 cells/well, StemPro hESC SFM, 7 days, compounds at 10 or 50 μM", "result": "supported elevated colony formation"}]}
{"smiles": "NCC(O)c1ccc(O)c(O)c1", "note": "(racemic) [NE, (±)-Norepinephrine (+)-bitartrate]", "values": [{"measurement": "cells generated at passage 1", "setting": "CyT49 cells", "result": "greater than 2×10^7 cells per well"}, {"measurement": "frequency of colony formation", "setting": "[1]", "result": "2.5-3.5 % of the plated cells"}]}
